# At least one compound was matched to its structure with a doubt left.
# Experiments:
# HUVEC cells [1] = assay: EF-induced elongation of endothelial cells (long:short axis ratio); type: cell-based, human; conditions: drug 50 μM
# Procedure: HUVEC cells were seeded in a trough formed by two parallel (1 cm apart) strips of glass coverslip (No. 1, length of 22 mm) fixed to the base of the dish with silicone grease. Scratch lines were made perpendicular to the long axis of the chamber with a fine sterile needle and used as reference marks for directed cell migration. Cells were incubated for 24-48 hours (37° C., 5% CO2) before a roof coverslip was applied and sealed with silicone grease. The final dimensions of the chamber, through which current was passed, were 22×10×0.2 mm. […] Field strengths were measured directly at the beginning of, the end of and during each experiment. […]
# A series of images was taken with an image analyser immediately before EF exposure and at 4, 8 and 24 hours of EF exposure. Cell orientation was quantified as an orientation index (Oi), which is defined as Oi=cos 2(α), where α is the angle formed by the long axis of a cell with a line drawn perpendicular to the field lines. […] The significance of this two-dimensional orientation distribution against randomness was calculated using Rayleigh's distribution. A long:short axis ratio was calculated for assessment of elongation.
# HUVEC cells elongated dramatically in an EF. […] We quantified the elongation of the cells using a long:short axis ratio. […]
# HUVEC cells [2] = assay: EF-induced reorientation of endothelial cells (orientation index Oi); type: cell-based, human; conditions: drug 50 μM, 1 hour before and during EF exposure
compound,measurement,setting,value
O=c1cc(N2CCOCC2)oc2c(-c3ccccc3)cccc12 [LY294002],long:short axis ratio in EF-treated cells,HUVEC cells [1],significantly decreased
same,orientation response / reorientation of cells in an EF,HUVEC cells [2],significantly decreased
